# Assay results published in the supplement of paper PMC11006884.
# Chains of the proteins cited; added tags and fusions are not shown. Lines headed by an entry give the natural chain unless they say otherwise; changes in a name come on top.
# UniProt P24752: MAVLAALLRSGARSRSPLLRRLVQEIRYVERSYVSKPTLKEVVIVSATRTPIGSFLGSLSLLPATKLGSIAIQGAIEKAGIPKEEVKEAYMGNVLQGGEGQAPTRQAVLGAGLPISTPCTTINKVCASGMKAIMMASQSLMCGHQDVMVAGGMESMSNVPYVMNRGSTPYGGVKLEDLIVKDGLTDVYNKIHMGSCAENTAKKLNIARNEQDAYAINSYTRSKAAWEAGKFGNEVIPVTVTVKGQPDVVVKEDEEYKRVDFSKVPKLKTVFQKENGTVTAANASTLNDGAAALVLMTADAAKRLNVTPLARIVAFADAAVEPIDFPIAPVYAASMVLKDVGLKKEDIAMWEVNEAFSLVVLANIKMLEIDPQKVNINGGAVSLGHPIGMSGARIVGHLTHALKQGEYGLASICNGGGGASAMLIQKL
# UniProt P27448: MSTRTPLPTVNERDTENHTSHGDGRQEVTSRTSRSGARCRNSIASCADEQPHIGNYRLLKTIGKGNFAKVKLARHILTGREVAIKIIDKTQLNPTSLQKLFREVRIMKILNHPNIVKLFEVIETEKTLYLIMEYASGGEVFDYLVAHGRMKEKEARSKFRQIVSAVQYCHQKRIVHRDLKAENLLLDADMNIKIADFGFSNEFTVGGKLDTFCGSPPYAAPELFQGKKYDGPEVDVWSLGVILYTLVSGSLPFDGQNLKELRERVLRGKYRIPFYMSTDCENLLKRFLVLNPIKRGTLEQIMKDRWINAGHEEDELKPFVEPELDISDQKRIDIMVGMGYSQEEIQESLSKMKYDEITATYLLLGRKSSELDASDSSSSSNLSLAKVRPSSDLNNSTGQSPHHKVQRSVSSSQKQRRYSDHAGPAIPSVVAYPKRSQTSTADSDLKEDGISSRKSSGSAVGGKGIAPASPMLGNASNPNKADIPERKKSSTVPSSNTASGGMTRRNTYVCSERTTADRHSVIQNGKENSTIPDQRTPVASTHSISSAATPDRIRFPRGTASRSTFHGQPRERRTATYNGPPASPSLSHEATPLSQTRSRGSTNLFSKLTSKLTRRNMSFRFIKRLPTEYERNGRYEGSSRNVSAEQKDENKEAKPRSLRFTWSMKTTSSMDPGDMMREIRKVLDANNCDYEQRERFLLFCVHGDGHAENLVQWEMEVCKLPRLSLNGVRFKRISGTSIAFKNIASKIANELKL
# UniProt P21333, whole entry, looked up: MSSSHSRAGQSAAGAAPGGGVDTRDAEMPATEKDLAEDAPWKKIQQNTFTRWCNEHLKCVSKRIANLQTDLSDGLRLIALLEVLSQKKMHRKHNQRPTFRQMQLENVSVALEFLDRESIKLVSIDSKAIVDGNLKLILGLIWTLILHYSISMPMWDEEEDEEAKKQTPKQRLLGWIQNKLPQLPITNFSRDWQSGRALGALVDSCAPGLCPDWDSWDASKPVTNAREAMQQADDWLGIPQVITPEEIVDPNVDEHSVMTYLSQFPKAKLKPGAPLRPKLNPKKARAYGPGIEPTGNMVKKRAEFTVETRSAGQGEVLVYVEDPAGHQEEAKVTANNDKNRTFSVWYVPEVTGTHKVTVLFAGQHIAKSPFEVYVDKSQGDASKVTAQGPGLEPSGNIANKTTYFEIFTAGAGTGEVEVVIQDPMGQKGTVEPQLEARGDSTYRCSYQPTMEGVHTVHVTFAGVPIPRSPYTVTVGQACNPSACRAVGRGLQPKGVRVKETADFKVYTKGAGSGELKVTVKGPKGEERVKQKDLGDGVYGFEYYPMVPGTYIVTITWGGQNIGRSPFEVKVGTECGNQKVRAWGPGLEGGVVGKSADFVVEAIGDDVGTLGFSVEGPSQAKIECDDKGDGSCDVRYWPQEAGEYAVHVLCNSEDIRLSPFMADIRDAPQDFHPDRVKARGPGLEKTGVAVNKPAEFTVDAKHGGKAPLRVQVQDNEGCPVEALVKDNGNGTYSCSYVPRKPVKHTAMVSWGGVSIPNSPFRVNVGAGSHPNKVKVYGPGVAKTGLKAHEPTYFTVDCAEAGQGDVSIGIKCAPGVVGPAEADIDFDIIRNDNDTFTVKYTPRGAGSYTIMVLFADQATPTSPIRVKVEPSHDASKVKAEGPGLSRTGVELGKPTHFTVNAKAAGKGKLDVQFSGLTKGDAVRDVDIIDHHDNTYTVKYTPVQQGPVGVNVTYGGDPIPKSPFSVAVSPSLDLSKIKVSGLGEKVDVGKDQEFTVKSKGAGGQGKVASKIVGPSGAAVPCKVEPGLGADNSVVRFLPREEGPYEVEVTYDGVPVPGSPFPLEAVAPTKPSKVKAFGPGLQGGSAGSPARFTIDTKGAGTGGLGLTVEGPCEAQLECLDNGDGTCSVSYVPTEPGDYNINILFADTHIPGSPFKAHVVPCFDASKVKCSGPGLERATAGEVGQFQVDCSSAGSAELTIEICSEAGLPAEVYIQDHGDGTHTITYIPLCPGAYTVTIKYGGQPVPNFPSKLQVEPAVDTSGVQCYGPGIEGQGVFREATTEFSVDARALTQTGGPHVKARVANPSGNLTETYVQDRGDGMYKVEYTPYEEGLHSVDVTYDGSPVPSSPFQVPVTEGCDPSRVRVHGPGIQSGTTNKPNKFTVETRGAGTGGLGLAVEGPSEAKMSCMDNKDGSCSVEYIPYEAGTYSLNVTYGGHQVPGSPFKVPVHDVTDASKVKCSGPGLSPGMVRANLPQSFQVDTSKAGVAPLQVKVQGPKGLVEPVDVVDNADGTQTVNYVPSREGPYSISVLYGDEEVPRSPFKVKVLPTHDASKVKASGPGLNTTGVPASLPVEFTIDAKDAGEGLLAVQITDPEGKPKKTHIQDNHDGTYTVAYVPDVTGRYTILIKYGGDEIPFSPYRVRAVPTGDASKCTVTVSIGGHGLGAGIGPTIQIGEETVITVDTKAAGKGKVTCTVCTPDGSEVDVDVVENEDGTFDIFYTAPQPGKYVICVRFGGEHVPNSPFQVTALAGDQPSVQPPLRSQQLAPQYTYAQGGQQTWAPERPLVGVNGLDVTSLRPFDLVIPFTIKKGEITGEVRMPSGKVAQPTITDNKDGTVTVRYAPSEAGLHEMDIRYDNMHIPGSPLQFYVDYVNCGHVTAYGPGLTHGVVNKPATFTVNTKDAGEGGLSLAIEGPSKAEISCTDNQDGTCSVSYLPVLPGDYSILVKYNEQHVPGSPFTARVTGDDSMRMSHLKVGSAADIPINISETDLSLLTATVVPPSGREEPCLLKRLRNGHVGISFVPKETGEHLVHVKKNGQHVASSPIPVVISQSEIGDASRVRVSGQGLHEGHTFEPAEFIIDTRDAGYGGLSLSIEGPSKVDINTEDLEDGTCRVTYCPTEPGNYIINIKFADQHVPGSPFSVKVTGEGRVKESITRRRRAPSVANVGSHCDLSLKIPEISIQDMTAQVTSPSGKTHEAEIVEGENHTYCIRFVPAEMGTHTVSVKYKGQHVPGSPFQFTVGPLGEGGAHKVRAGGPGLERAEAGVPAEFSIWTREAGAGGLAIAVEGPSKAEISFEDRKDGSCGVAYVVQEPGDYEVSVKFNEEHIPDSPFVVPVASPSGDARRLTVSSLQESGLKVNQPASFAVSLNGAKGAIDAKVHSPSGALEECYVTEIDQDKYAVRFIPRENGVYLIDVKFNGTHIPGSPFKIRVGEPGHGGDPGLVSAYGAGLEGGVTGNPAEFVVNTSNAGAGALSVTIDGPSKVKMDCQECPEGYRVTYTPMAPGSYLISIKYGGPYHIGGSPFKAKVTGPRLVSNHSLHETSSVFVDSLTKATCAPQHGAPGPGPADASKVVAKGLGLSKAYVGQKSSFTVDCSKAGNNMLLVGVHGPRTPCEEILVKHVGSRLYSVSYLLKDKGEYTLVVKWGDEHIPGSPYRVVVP
# UniProt P20810: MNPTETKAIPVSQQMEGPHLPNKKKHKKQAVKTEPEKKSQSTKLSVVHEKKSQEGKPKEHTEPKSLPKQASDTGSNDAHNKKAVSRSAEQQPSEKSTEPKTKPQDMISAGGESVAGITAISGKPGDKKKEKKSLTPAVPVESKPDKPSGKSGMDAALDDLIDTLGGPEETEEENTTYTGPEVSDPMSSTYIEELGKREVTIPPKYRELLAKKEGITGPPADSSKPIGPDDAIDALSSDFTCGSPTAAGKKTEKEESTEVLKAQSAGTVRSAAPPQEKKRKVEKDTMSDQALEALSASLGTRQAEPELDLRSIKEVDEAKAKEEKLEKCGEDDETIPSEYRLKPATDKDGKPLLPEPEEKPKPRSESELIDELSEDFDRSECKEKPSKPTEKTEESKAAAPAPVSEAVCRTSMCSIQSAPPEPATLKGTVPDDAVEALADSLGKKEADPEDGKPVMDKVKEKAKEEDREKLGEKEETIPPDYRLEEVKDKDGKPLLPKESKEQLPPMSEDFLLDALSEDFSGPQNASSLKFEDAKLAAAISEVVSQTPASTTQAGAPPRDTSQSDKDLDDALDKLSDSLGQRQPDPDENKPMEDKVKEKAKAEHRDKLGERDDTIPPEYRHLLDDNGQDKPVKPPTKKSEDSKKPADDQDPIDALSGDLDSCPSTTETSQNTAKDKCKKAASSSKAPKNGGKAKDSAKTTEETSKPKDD
# UniProt P17858: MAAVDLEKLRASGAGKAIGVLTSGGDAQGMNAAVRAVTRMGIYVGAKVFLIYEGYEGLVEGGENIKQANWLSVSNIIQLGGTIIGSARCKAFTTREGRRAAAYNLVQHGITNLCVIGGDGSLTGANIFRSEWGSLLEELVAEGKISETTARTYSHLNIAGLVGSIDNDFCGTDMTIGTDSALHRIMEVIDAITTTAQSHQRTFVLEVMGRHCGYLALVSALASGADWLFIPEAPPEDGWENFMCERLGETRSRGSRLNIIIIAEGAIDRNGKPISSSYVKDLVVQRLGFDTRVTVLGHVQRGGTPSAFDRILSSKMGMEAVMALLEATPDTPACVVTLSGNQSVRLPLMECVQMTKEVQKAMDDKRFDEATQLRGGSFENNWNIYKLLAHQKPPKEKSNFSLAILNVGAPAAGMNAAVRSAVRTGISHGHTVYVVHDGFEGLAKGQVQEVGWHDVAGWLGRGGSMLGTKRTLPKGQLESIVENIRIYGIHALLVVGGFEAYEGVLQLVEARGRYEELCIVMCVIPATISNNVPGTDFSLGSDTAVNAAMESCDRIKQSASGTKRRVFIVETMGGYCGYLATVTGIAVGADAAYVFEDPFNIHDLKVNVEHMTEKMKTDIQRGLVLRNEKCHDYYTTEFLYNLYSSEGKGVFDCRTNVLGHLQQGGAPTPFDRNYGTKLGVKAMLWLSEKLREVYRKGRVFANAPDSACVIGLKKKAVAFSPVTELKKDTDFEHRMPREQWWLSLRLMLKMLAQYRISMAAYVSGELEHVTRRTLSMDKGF
# UniProt P30084: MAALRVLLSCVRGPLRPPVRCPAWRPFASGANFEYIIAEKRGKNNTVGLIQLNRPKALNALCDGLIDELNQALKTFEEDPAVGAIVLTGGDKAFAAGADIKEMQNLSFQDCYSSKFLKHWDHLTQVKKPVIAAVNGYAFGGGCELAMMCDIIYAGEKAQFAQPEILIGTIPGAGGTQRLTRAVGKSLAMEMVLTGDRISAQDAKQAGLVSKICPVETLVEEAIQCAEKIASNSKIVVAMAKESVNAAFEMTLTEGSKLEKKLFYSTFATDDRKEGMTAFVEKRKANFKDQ
# UniProt P28838: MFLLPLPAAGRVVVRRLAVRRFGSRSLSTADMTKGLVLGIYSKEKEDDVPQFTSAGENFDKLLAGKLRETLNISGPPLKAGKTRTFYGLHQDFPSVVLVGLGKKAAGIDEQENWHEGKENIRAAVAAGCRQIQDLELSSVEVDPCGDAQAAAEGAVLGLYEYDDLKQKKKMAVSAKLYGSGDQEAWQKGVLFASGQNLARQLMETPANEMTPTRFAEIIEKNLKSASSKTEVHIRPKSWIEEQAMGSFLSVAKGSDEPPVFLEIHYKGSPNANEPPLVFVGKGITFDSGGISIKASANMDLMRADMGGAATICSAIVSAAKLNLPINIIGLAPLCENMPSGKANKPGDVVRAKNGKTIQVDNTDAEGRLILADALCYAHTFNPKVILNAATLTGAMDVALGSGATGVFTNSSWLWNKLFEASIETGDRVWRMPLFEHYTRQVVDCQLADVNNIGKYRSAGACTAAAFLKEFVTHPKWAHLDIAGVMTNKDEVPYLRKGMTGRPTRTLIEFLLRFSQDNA
# UniProt P26368, whole entry, looked up: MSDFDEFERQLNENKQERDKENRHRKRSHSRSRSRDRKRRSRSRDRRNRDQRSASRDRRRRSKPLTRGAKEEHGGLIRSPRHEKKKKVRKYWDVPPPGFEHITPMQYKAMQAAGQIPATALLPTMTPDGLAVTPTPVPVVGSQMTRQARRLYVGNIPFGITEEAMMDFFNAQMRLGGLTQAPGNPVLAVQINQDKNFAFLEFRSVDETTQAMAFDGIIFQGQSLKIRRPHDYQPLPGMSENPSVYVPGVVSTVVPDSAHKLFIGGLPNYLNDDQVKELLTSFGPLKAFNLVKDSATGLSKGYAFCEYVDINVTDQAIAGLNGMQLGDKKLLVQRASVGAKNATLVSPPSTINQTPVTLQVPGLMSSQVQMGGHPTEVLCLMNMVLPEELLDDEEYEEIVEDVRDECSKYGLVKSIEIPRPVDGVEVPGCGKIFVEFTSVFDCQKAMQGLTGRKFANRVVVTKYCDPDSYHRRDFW
# The targets with a hit were mostly taken out for another list; the other results follow. This is a noisy data set. The list shows a part of the results, in another mix than the full data.
# Compound: COC(=O)/C=C/c1ccccc1 [methyl cinnamate]
# Experiment: log2 ratio of iodoacetamide-alkyne labeling of the cysteine site, DMSO over compound (competition); higher = stronger covalent engagement of the cysteine by the compound, active = 1 or more
# Conditions: 500 µM; treatment time 1 h; system: HEK293T cell lysate
# How it was run: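 Reporter intensities give each cysteine's log2 competition ratio as the mean of control channels over the mean of compound channels. The samples were HEK293T lysate (2 mg/mL) given vehicle or electrophile (500 µM, 1 h, ambient temperature), then iodoacetamide alkyne (1 h), followed by click coupling to sCIP-TMT reagents, pooling, trypsin digestion overnight at 37 °C, streptavidin enrichment, acid elution, Orbitrap Eclipse LC-MS/MS with FAIMS and FragPipe quantification. Duplicate channels and three replicates were run, and cysteines quantified in only one replicate were discarded.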
row,Target,log2 ratio of iodoacetamide-alkyne labeling
1,UniProt P20719_C233,inactive: 0.0491
2,ACAT1 C126 (UniProt P24752),inactive: 0.265
3,ACAT1 C119 (UniProt P24752),inactive: 0.0602
4,APC C2664 (UniProt P25054),inactive: 0.177
5,RPL10 C195 (UniProt P27635),inactive: 0.384
6,NF1 C1486 (UniProt P21359),inactive: 0.125
7,UniProt P21127_C440,inactive: 0.205
8,CAD C1889 (UniProt P27708),inactive: 0.166
9,PLCG1 C247 (UniProt P19174),inactive: 0.0679
10,UniProt P27448_C46,inactive: 0.149
11,MAP4 C535 (UniProt P27816),inactive: -0.243
12,VARS C682 (UniProt P26640),inactive: 0.354
13,UniProt P26639_C343,inactive: 0.104
14,POLD1 C713 (UniProt P28340),inactive: -0.00198
15,FLNA C2199 (UniProt P21333),inactive: 0.277
16,APEX1 C93 (UniProt P27695),inactive: 0.125
17,PGAM1 C153 (UniProt P18669),inactive: 0.101
18,ABCD3 C477 (UniProt P28288),inactive: 0.186
19,RPL17 C144 (UniProt P18621),inactive: 0.0747

row,Target,log2 ratio of iodoacetamide-alkyne labeling
1,EPHA2 C612 (UniProt P29317),inactive: 0.209
2,CAST C328 (UniProt P20810),inactive: 0.3
3,PFKL C630 (UniProt P17858),inactive: 0.141
4,MCM3 C148 (UniProt P25205),inactive: 0.0595
5,ECHS1 C62 (UniProt P30084),inactive: 0.178
6,LAP3 C462 (UniProt P28838),inactive: -0.262
7,U2AF2 C464 (UniProt P26368),inactive: -0.00562
8,DNAJB1 C267 (UniProt P25685),inactive: 0.0806
9,MSH3 C166 (UniProt P20585),inactive: 0.545
10,EEF1G C194 (UniProt P26641),inactive: 0.0574
11,DCK C59 (UniProt P27707),inactive: -0.265
12,GART C93 (UniProt P22102),inactive: -0.0272
13,CAST C381 (UniProt P20810),inactive: 0.449
14,FLNA C2479 (UniProt P21333),inactive: 0.399
15,DCK C9 (UniProt P27707),inactive: 0.207
16,RCC1 C93 (UniProt P18754),inactive: 0.174
17,GLDC C612 (UniProt P23378),inactive: 0.0276
18,PFKL C708 (UniProt P17858),inactive: 0.053
19,UQCRC2 C192 (UniProt P22695),inactive: 0.0887
